Measured values taken from PubChem BioAssay AID2685 (National Center for Advancing Translational Sciences (NCATS), 2010).
This is one part of the list. Shown are side measurements of this screen, not its main read-out; they come without a call. Most of these compounds were active or inconclusive in the main read-out, so they are no random draw. The note in brackets gives the kind of curve behind each potency; many fits are weak.

Experiment: qHTS Assay for Lipid Storage Modulators in Drosophila S3 Cells;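 as to cell number change: cells counted by Cell Tracker Red CMTPX staining in the red channel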
Settings: BODIPY lipid droplet fluorescence, 18-24 h; for cell number change: measured here: cell count max response, cells fed with added oleic acid
How it was run: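 Drosophila S3 cells got compounds at several concentrations plus oleic acid (400 uM solution). Laser-scanning cytometry with 488 nm excitation read lipid droplets at 500-530 nm and cells at 575-640 nm. Percent activity was relative to 20 uM Triacsin C.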

[1] = measured here: lipid fluorescence (Fed channel) AC50, cells fed with added oleic acid
[2] = measured here: cell number channel AC50, cells fed with added oleic acid

| Compound | cell number change [%] | AC50 [1] | AC50 [2] |
| --- | --- | --- | --- |
| CCC(CC)COC(=O)C(C#N)c1nc2ccccc2nc1N1CCOCC1 (stereo not drawn) | -18 | 73.1 nM [rising, full curve, poor fit] | – |
| CC1CCCCC1NC(=O)CN(C)S(=O)(=O)c1ccc2c(c1)c(=O)n(C)c(=O)n2C (stereo not drawn) | -26.5 | 51.7 nM [falling, full curve, poor fit] | 731 nM [falling, full curve, poor fit] |
| Cc1cc(OC(C)C(=O)NCC2CCC(C(=O)O)CC2)c2c(C)c(C)c(=O)oc2c1 (stereo not drawn) | 8.43 | 1840 nM [falling, partial curve] | – |
| Cc1cc(OCC(=O)Nc2cc(C(C)(C)C)on2)ccc1[N+](=O)[O-] | -17.8 | 366 nM [falling, partial curve] | – |
| Nn1c(-c2ccccc2)nc2cc(Cl)ccc2c1=O | -4.21 | – | – |
| CC(=O)c1ccc(NC(=O)c2cc(-c3cccs3)on2)cc1 | 13.9 | – | – |
| CCOc1ccc(Cl)cc1S(=O)(=O)NCc1cccnc1 | 66.9 | 2590 nM [rising, partial curve] | 8200 nM [rising, partial curve] |
| CCOCCn1c(N2CCCC2)nc2c1c(=O)[nH]c(=O)n2C | -7.3 | – | 1840 nM [rising, partial curve] |
| Cc1cc(C)n(CCC(=O)N=Nc2c(O)[nH]c3ccccc23)n1 | – | 2310 nM [rising, partial curve] | – |
| COc1ccc(C(=O)NC(=S)Nc2ccc3c(c2)Cc2ccccc2-3)cc1 | 21.9 | 4.11 nM [rising, full curve, poor fit] | 4610 nM [rising, full curve, poor fit] |
| O=C(CCN1CCN(Cc2ccccc2)CC1)NNC(=O)Nc1cccc(Cl)c1 | 1.08 | 29100 nM [falling, single point] | – |
| CN1CCN(C(=O)CSc2nc3c(c(=O)n(C)c(=O)n3C)n2C)CC1 | 3.04 | – | – |
| Nc1nc2ccc([N+](=O)[O-])cc2[nH]1 | 3.84 | 92 nM [rising, full curve, poor fit] | – |
| O=C(C1CCC1)N1CCc2cc(S(=O)(=O)NCc3ccco3)ccc21 | 23.2 | 20600 nM [rising, partial curve] | – |
| C/C(=N/NC(=O)c1cnccn1)c1cccs1 | – | 29100 nM [falling, single point] | 3660 nM [falling, partial curve, poor fit] |
| COc1ccc(S(=O)(=O)NCc2ccc3c(c2)cc(C)n3C)cc1 | -57.8 | 14600 nM [falling, partial curve, poor fit] | 32600 nM [falling, partial curve, poor fit] |
| CCNC(=S)N/N=C1\CCCCc2ccccc21 | -49.7 | 29100 nM [falling, single point] | 32600 nM [falling, single point] |
| COc1ccc(S(=O)(=O)NNC(=O)c2cc3c4ccccc4n(C)c3s2)cc1 | -27.6 | – | – |
| NC(=O)c1cc([N+](=O)[O-])cc2c1C=Cc1ccccc1O2 | 22.4 | 6510 nM [falling, single point] | 58 nM [falling, single point] |
| COc1ccc(C(=O)NC2CC2)cc1OC1CCN(Cc2ccccc2)CC1 | -8.67 | 6510 nM [falling, single point] | – |

| Compound | cell number change [%] | AC50 [1] | AC50 [2] |
| --- | --- | --- | --- |
| C=CCn1c(Cc2csc(N)n2)nnc1SCC(=O)Nc1ccc(C(=O)OCC)cc1 | 19 | 92 nM [rising, full curve, poor fit] | 103 nM [rising, full curve, poor fit] |
| COc1ccc(NC(=O)CSc2nc(C)cs2)cc1OC | -7 | – | – |
| CCn1c(-c2sc(-c3ccccc3)nc2C)n[nH]c1=S | 90.8 | – | – |
| O=C(CCCn1c(SCC(=O)c2ccc(Cl)cc2)nc2ccccc2c1=O)NCc1ccco1 | 0.0707 | – | – |
| CN(CC(=O)NCCc1ccccc1)S(=O)(=O)c1cnc[nH]1 | 1.38 | 731 nM [falling, full curve, poor fit] | – |
| Cc1ccc(Cn2cc(/C=C/C(=O)O)c(-c3ccccc3)n2)cc1 | -26.8 | 3660 nM [falling, single point] | – |
| CCOC(=O)C1=NN(C(=O)Cc2ccccc2)C(O)(c2ccc(Cl)cc2)C1 (stereo not drawn) | -14.1 | 731 nM [falling, single point] | – |
| CC1(C)CC(=O)c2cnc(NC(=O)CSC(=S)N3CCCCC3)nc2C1 | 14.9 | – | – |
| c1ccc(N(c2ccccc2)c2nc(N3CCCC3)nc(-n3ccnc3)n2)cc1 | -32.5 | 29100 nM [falling, single point] | 29100 nM [falling, single point] |
| CCOC(=O)CSC1=NC(=O)/C(=C\c2ccc(Cl)cc2)S1 | -20.6 | – | – |
| Cc1cccc(C)c1NC(=O)CN(C)C(=O)CCC(=O)c1ccccc1 | 19.1 | 146 nM [rising, full curve, poor fit] | – |
| Clc1ccccc1CSc1ncn(-c2ccccc2)n1 | -30.4 | 29100 nM [falling, single point] | 13000 nM [falling, partial curve] |
| CN(Cc1ccccc1F)C(=O)CN1c2cccc3cccc(c23)S1(=O)=O | 9.01 | – | 73.1 nM [falling, full curve, poor fit] |
| CC(C)(C)NC(=S)NCc1ccncc1 | -9.2 | 3260 nM [falling, full curve, poor fit] | – |
| Cc1cnc(NC(=O)c2sc3ccccc3c2Cl)s1 | 23.4 | 2590 nM [rising, partial curve] | – |
| O=C(Nc1cccnc1Cl)c1cc(-c2ccco2)on1 | -17 | 517 nM [falling, full curve] | 58 nM [falling, full curve, poor fit] |
| CCN(CC(=O)Nc1ccccc1C(F)(F)F)C(=O)CCc1nc2sc3c(c2c(=O)[nH]1)CCCC3 | 4.8 | 5800 nM [falling, single point] | – |
| O=C(CCCn1c(=O)oc2ccccc21)Nc1ccccc1 | 12 | – | – |
| CCCNC(=O)C(Cc1ccc(F)cc1)NC(=O)c1ccc(C#N)cc1 (stereo not drawn) | 9.7 | 2910 nM [falling, single point] | 6510 nM [falling, single point] |

3 structures already listed, sorted by count of non-hydrogen atoms, largest number first:

| Compound | cell number change [%] | AC50 [1] | AC50 [2] |
| --- | --- | --- | --- |
| COc1ccc(C(=O)NC(=S)Nc2ccc3c(c2)Cc2ccccc2-3)cc1 | 21.9 | 4.11 nM [rising, full curve, poor fit] | 4610 nM [rising, full curve, poor fit] |
| O=C(C1CCC1)N1CCc2cc(S(=O)(=O)NCc3ccco3)ccc21 | 23.2 | 20600 nM [rising, partial curve] | – |
| COc1ccc(NC(=O)CSc2nc(C)cs2)cc1OC | -7 | – | – |
